According to article PMC6214026 (International Journal of Molecular Sciences, 2018):

Assay: general procedure: solution-phase peptide synthesis
Settings: conjugation step

Question: With “1,11,16,3-tetra-tert-butyl 28-((S)-4-ethyl-3,14-dioxo-3,4,12,14-tetrahydro-1H-pyrano[3′,4′:6,7]indolizino[1,2-b]quinolin-4-yl) (3S,6S,11S,16S,21S)-6-(2-(tert-butoxy)-2-oxoethyl)-21-((tert-butoxycarbonyl)amino)-5,8,13,18,22-pentaoxo-4,7,12,17,23-pentaazaoctacosane-1,3,11,16,28-pentacarboxylate” as the substance, how does the conjugation yield read?
Answer: Its conjugation yield is 45.2%.

Question: Which conjugation yield does the source give for “1,11,16,3-tetra-tert-butyl 34-((S)-4-ethyl-3,14-dioxo-3,4,12,14-tetrahydro-1H-pyrano[3′,4′:6,7]indolizino[1,2-b]quinolin-4-yl) (3S,6S,11S,16S,21S)-6-(2-(tert-butoxy)-2-oxoethyl)-21-((tert-butoxycarbonyl)amino)-5,8,13,18,22-pentaoxo-4,7,12,17,23-pentaazatetratriacontane-1,3,11,16,34-pentacarboxylate” here?
Answer: Its conjugation yield is 42.0%.

Question: With “1,11,16,3-tetra-tert-butyl 26-((S)-4-ethyl-3,14-dioxo-3,4,12,14-tetrahydro-1H-pyrano[3′,4′:6,7]indolizino[1,2-b]quinolin-4-yl) (3S,6S,11S,16S,21S)-6-(2-(tert-butoxy)-2-oxoethyl)-21-((tert-butoxycarbonyl)amino)-5,8,13,18,22-pentaoxo-4,7,12,17,23-pentaazahexacosane-1,3,11,16,26-pentacarboxylate” as the substance, how does the conjugation yield read?
Answer: Its conjugation yield is 49.3%.

Question: With “14,22,24,9-tetra-tert-butyl 1-((S)-4-ethyl-3,14-dioxo-3,4,12,14-tetrahydro-1H-pyrano[3′,4′:6,7]indolizino[1,2-b]quinolin-4-yl) (4S,9S,14S,19S,22S)-19-(2-(tert-butoxy)-2-oxoethyl)-4-((tert-butoxycarbonyl)amino)-3,7,12,17,20-pentaoxo-2,8,13,18,21-pentaazatetracosane-1,9,14,22,24-pentacarboxylate” as the substance, how does the conjugation yield read?
Answer: Its conjugation yield is 30.0%.

Same assay, conditions: coupling step

Question: Which step yield does the source give for “tetra-tert-butyl (5S,10S,15S,18S)-15-(2-(tert-butoxy)-2-oxoethyl)-1-(9H-fluoren-9-yl)-3,8,13,16-tetraoxo-2-oxa-4,9,14,17-tetraazaicosane-5,10,18,20-tetracarboxylate” here?
Answer: The step yield was 86.7%.

Question: For “6-benzyl 11,16,24,26-tetra-tert-butyl (6S,11S,16S,21S,24S)-21-(2-(tert-butoxy)-2-oxoethyl)-2,2-dimethyl-4,9,14,19,22-pentaoxo-3-oxa-5,10,15,20,23-pentaazahexacosane-6,11,16,24,26-pentacarboxylate”, which step yield is on record?
Answer: Its step yield is 83.6%.

Same assay, conditions: late stage modification step

Question: For “(3S,6S,11S,16S,21S)-21-amino-6-(carboxymethyl)-35-(((S)-4-ethyl-3,14-dioxo-3,4,12,14-tetrahydro-1H-pyrano[3′,4′:6,7]indolizino[1,2-b]quinolin-4-yl)oxy)-5,8,13,18,22,35-hexaoxo-4,7,12,17,23-pentaazapentatriacontane-1,3,11,16-tetracarboxylic acid”, which step yield is on record?
Answer: The step yield was 24.8%.

Question: With “di-tert-butyl ((S)-2-((S)-4-((S)-4-amino-5-(tert-butoxy)-5-oxopentanamido)-5-(tert-butoxy)-5-oxopentanamido)-4-(tert-butoxy)-4-oxobutanoyl)-L-glutamate” as the substance, how does the step yield read?
Answer: The step yield was 87.3%.

Question: With “(3S,6S,11S,16S,21S)-21-amino-6-(carboxymethyl)-27-(((S)-4-ethyl-3,14-dioxo-3,4,12,14-tetrahydro-1H-pyrano[3′,4′:6,7]indolizino[1,2-b]quinolin-4-yl)oxy)-5,8,13,18,22,27-hexaoxo-4,7,12,17,23-pentaazaheptacosane-1,3,11,16-tetracarboxylic acid” as the substance, how does the step yield read?
Answer: Its step yield is 19.9%.

Question: Which step yield does the source give for “((S)-4-((S)-4-((S)-4-amino-5-((2-(((S)-4-ethyl-3,14-dioxo-3,4,12,14-tetrahydro-1H-pyrano[3′,4′:6,7]indolizino[1,2-b]quinolin-4-yl)oxy)-2-oxoethyl)amino)-5-oxopentanamido)-4-carboxybutanamido)-4-carboxybutanoyl)-L-aspartyl-L-glutamic acid” here?
Answer: Its step yield is 19.9%.

Question: With “(3S,6S,11S,16S,21S)-21-amino-6-(carboxymethyl)-29-(((S)-4-ethyl-3,14-dioxo-3,4,12,14-tetrahydro-1H-pyrano[3′,4′:6,7]indolizino[1,2-b]quinolin-4-yl)oxy)-5,8,13,18,22,29-hexaoxo-4,7,12,17,23-pentaazanonacosane-1,3,11,16-tetracarboxylic acid” as the substance, how does the step yield read?
Answer: Its step yield is 25.0%.
